Reference: patent US7582618B2 (priority 2002, dated 2009)
Where “and” joins values, the source holds several entries; their conditions need not be identical. Equal entries are not always repeated. Marks after values point to notes of the source that are not given here.

Tested on: HepG2 cells
Assay: Incorporation of drug into cellular RNA and DNA
Assay type: cell-based, human
Settings: HepG2, 10 μM labeled drug, 30 hours; for Incorporated drug amount pmole/μg DNA: into cellular DNA; for Incorporated drug amount pmole/μg RNA / incorporation into RNA: into cellular RNA

| Structure (SMILES) | Incorporated drug amount pmole/μg DNA | Incorporated drug amount pmole/μg RNA | incorporation into RNA [pmole/1 g] |
| --- | --- | --- | --- |
| Cc1cn([C@H]2C[C@H](N=[N+]=[N-])[C@@H](CO)O2)c(=O)[nH]c1=O [ZDV, zidovudine] | 0.103 pmole/μg and 0.103 ± 0.0123^a pmole/μg | 0.0009 ± 0.0003^a pmole/μg | 0.0009 |
| NC(=O)c1ncn([C@@H]2O[C@H](CO)[C@@H](O)[C@H]2O)n1 [ribavirin, 1-β-D-ribofuranosyl-1-1,2,4-triazole-3-carboxamide, reference compound] | 0.0120^b pmole/μg | 0.0132^c pmole/μg | – |
| CC1(O)C(O)C(CO)OC1n1ccc(N)nc1=O (stereo not shown) [mCyd, 4-Amino-1-(3,4-dihydroxy-5-hydroxymethyl-3-methyl-tetrahydro-furan-2-yl)-1H-pyrimidine-2-one] | 0.0013-0.0014 pmole/μg and 0.0013 ± 0.0008^a pmole/μg | 0.0013-0.0014 pmole/μg and 0.0014 ± 0.0008^a pmole/μg | – |
| Nc1ccn([C@H]2CC[C@@H](CO)O2)c(=O)n1 [ddC, zalcitabine] | 0.0055 pmole/μg and 0.0055^b pmole/μg | 0.0013^b pmole/μg | 0.0013 |
